The values that follow come from patent publication US20200148768A1.

Sequences of proteins named here, by UniProt entry; tags and fusion partners are left off. A change or cut given only in a name is not applied to a line headed by its entry.
UniProt Q13410: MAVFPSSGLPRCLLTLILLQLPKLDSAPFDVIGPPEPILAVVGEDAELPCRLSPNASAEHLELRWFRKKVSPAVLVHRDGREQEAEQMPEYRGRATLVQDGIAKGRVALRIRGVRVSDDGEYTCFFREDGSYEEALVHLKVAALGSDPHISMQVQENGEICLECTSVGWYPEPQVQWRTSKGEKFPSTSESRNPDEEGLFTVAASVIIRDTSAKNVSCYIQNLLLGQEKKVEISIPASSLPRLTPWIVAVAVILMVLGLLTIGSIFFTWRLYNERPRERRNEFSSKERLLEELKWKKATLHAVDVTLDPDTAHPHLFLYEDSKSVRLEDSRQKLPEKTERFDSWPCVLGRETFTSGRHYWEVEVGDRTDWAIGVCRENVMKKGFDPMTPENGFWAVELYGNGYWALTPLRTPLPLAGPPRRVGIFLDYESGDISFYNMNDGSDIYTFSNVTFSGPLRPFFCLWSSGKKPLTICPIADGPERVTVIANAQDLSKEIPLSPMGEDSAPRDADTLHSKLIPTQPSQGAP
UniProt Q62556: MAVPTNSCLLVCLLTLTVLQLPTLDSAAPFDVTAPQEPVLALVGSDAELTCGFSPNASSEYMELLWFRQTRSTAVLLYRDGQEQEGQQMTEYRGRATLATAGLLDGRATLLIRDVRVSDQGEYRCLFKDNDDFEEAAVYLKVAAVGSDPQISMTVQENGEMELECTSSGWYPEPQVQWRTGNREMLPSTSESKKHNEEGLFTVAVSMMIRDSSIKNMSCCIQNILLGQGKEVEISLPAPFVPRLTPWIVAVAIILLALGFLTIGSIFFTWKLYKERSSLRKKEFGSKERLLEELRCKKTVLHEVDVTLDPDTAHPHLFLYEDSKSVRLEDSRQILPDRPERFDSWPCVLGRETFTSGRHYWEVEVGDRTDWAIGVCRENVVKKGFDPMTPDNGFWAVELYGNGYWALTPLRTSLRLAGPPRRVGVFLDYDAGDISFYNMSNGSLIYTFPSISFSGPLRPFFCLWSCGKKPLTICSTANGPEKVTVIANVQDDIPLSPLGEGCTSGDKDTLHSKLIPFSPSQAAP

Test [1] deals with human BTN1A1 wild type, expressed on cells (human) (UniProt Q13410). As to the kind of experiment: summary of FACS and western blot. Background: Immunoblotting shows a protein as a band on a membrane.
Test [2] shares this target. As to the kind of experiment: confocal immunofluorescence, HEK293T expressing BTN1A1 WT.
Test [3] deals with mouse BTN1A1-ECD-Fc (mouse; human) (UniProt Q62556). As to the kind of experiment: SPR (Biacore), mouse BTN1A1-Fc 2-64 nM over immobilized STC1011.
The target is the same in test [4]. The test can be described thus: SPR (Biacore X-100), antibody captured on chip. Background: Surface plasmon resonance follows binding to a sensor surface in real time, without labels.

No constants are given. Whether binding was seen depends on the method and setting. Some results given as binding are weak or reduced against the parent protein; the word gives no strength.

B1: STC810 (antibody, V domains shown)
VH: EVQLQQSGPELVKPGASVKISCKASGYTFTHYNMDWVKQSHGKSLEWIGYIYPSNGGTGYNQKFKSRATLTVDKSSSTAYMELHSLTSEDSAVYYCARGAYHYGSSYAYWYFDVWGAGTTVTVSS
VL: DIQMTQTTSSLSASLGDRVTISCSASQDISNYLNWYQQKPDETVKLLISYTSSLHSGVPSRFSGSGSGTDYSLTISNLAPEDIATYYCQQSSKLPFTFGSGTELEIKR
For B1, the binding entry in test [1] and in test [2] was “binds” each time.

B2: STC1011 (antibody, V domains shown)
VH: EVQLQQSGPELVKPGDSVKMSCKASGYTFTDYYMDWVKQSHGKSLEWIGYISPNNGGTKYNQKFKGKATLTVDKSSSTAYMELHSLTSEDSAVYYCAREPDLLYYFDYWGQGTTLTVSS
VL: DIVMSQSPSSLAVSVGEKVIMSCKSSQSLLYFSNQKNYLAWYQQKPGQSPRLLIYWASTRESGVPDRFTGSGSGTDFTLTISSVKAEDLAVYYCQQYYSYPWTFGGGTKLEIK
Regarding B2, the binding entry in test [3] and in test [4] was “binds” throughout.

B3: STC1029 (antibody, V domains shown)
VH: EVQLQQSGPELVKPGASVKISCKASGYSFTGYFMNWVKQSHGKSLEWIGRINPYNGDTFYNQKFKDKATLTVDTSSSTAHMELRSLTSEESAVYYCARWTTVINFDYWGQGTTLTVSS
VL: SIVMTQTPKFLLVSAGDRVTITCKASQSVSYDVVWYQQKPGQSPKLLMYYVSNRYTGVPDRFTGSGYGTDFTFTISTVQAEDLAVYFCQQDYSSPPTFGGGTKLEIK
In the case of B3, the binding result in test [4] is “binds”.
